Data published in article doi:10.1101/2021.07.28.454117.
No constants are given. Whether binding was seen depends on the method and setting. Binding seen in cells or lysates may run through a third protein. Here binding means that the protein was enriched with, or labelled near, the bait; the list need not be complete. Tags and fused reporters may be left off the sequences shown.

Chains of the proteins cited; added tags and fusions are not shown.
UniProt P53350: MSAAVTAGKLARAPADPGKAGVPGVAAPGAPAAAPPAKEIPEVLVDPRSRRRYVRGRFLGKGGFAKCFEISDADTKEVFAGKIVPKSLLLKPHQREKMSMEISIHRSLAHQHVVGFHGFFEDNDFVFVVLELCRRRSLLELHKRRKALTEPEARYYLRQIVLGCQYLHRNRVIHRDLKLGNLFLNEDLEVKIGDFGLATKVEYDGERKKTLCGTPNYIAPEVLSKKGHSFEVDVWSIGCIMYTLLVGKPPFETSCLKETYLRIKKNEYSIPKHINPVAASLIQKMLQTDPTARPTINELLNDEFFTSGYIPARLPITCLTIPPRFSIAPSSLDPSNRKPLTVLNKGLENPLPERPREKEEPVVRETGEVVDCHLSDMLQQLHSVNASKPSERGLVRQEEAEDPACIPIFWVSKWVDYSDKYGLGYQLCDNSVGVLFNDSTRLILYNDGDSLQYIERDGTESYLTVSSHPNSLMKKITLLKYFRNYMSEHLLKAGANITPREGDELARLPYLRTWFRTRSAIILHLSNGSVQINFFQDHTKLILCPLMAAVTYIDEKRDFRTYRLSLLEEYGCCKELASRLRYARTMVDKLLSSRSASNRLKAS
UniProt P14635: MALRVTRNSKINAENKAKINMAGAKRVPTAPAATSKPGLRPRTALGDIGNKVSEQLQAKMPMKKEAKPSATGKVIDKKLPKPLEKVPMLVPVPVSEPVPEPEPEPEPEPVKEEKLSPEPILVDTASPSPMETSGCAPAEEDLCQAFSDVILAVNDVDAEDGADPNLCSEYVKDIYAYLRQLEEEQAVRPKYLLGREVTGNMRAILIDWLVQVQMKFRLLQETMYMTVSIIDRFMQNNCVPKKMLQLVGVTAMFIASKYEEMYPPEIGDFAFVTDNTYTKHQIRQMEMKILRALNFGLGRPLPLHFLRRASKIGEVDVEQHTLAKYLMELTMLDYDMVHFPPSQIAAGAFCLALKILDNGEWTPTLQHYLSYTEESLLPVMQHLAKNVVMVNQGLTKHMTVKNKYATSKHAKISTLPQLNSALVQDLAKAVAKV
UniProt Q14980: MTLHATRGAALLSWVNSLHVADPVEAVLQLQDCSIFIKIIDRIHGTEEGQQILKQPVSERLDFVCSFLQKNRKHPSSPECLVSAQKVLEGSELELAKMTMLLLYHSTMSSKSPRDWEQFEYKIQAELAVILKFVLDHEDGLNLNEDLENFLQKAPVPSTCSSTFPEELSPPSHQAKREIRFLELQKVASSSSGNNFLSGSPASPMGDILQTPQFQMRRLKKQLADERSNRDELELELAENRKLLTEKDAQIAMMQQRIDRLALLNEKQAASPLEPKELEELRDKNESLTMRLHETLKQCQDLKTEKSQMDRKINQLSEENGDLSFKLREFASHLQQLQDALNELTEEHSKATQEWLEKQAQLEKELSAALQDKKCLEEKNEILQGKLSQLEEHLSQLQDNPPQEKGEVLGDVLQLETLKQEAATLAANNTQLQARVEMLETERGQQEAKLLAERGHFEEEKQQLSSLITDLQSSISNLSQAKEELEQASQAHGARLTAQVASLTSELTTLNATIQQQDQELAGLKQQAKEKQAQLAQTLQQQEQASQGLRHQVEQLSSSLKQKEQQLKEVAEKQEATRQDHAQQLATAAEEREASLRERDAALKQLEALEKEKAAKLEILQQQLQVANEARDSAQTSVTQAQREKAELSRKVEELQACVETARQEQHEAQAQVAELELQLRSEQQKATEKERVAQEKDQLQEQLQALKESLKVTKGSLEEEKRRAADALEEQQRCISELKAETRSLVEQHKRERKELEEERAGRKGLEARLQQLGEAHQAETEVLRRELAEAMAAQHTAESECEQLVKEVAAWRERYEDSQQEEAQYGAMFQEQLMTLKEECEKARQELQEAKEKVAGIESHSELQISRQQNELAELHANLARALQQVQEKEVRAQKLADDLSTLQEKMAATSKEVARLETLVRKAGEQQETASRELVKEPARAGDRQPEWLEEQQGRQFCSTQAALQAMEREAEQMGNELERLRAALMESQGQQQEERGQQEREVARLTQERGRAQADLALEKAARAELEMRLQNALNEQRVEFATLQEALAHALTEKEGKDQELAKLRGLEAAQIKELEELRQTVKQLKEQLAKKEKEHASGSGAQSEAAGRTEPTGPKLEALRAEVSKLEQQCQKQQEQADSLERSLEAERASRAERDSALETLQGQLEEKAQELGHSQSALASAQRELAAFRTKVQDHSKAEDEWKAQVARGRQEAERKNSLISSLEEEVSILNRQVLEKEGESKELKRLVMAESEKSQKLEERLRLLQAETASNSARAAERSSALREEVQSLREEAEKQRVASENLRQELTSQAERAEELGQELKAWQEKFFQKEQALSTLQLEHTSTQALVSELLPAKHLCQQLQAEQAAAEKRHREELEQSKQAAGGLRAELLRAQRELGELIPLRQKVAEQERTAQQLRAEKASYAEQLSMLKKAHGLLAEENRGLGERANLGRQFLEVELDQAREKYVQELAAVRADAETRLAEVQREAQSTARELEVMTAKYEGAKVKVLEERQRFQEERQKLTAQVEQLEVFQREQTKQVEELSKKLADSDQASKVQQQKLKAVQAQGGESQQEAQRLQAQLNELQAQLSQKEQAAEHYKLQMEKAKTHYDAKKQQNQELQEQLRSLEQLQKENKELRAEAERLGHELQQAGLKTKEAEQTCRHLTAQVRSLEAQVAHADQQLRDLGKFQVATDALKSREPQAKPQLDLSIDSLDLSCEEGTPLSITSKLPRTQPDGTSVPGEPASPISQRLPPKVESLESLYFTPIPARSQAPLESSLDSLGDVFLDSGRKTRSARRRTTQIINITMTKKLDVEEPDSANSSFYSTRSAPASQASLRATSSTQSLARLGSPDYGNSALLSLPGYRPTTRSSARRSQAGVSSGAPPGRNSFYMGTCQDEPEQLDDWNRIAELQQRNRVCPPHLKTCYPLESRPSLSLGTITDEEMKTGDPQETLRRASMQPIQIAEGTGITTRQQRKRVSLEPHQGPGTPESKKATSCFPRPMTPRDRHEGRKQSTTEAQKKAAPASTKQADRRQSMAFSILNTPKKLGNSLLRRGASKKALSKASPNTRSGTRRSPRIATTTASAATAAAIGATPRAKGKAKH
UniProt P60228: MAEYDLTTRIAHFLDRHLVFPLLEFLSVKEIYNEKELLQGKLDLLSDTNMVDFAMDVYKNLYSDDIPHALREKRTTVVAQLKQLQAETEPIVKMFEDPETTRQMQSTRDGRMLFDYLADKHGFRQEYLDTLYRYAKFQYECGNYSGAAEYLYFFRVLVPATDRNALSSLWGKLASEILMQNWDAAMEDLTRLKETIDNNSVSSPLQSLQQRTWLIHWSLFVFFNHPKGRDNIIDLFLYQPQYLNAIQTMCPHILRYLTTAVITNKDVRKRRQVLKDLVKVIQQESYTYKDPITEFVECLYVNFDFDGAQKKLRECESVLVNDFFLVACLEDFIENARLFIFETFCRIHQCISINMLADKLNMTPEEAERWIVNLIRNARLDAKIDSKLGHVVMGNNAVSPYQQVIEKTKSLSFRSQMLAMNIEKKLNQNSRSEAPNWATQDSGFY
UniProt P23258: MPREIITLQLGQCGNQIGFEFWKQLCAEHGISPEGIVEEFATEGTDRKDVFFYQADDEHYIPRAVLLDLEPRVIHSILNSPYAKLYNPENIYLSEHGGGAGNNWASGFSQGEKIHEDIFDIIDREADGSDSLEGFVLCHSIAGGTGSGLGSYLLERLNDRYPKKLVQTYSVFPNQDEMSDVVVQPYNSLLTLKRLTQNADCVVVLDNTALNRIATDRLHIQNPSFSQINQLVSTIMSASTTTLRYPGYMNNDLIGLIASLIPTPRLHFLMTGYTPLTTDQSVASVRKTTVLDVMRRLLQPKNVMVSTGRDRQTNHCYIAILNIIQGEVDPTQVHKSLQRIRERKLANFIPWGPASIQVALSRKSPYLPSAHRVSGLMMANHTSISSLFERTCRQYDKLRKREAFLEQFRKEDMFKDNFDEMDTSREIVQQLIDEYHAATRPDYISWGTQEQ
UniProt Q7Z460: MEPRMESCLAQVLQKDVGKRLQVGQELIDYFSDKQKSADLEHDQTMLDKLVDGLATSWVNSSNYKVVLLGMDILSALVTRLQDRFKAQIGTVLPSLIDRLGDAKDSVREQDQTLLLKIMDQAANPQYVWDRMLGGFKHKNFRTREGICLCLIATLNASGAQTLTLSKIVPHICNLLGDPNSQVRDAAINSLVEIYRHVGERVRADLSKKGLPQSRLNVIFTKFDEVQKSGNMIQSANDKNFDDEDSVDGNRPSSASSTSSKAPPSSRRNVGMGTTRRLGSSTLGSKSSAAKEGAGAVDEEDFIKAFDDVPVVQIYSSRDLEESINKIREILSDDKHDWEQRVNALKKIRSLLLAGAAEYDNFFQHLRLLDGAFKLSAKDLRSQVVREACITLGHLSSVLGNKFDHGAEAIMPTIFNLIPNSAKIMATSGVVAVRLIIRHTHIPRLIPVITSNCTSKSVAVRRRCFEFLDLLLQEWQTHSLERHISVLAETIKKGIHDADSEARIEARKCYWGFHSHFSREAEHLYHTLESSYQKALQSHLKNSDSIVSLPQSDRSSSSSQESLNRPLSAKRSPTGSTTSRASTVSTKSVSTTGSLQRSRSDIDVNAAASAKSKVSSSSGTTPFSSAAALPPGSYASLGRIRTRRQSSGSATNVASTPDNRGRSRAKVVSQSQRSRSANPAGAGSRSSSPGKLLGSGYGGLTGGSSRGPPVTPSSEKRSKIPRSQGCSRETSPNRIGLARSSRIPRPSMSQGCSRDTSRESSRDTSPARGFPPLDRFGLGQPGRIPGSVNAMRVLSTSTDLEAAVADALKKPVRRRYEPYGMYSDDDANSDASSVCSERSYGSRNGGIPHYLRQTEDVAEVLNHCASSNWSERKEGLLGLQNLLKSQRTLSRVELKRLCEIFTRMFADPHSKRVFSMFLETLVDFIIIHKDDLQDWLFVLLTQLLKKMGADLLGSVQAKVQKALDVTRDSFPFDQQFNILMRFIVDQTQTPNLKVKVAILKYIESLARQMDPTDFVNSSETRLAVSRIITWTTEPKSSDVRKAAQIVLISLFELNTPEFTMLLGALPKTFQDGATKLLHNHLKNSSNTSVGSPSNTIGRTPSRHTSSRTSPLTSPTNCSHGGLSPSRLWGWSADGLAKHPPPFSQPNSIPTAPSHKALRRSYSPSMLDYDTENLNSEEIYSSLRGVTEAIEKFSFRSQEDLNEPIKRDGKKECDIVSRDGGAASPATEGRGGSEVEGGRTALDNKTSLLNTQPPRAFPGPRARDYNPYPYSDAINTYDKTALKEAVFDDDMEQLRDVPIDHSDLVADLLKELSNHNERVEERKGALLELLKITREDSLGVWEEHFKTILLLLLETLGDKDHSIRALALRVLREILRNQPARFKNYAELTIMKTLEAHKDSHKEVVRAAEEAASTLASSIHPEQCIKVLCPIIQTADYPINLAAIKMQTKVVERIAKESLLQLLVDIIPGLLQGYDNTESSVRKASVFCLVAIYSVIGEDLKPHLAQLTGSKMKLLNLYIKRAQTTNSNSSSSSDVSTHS

Target: T1, GFP-LGN (UniProt P81274)
T1 sequence: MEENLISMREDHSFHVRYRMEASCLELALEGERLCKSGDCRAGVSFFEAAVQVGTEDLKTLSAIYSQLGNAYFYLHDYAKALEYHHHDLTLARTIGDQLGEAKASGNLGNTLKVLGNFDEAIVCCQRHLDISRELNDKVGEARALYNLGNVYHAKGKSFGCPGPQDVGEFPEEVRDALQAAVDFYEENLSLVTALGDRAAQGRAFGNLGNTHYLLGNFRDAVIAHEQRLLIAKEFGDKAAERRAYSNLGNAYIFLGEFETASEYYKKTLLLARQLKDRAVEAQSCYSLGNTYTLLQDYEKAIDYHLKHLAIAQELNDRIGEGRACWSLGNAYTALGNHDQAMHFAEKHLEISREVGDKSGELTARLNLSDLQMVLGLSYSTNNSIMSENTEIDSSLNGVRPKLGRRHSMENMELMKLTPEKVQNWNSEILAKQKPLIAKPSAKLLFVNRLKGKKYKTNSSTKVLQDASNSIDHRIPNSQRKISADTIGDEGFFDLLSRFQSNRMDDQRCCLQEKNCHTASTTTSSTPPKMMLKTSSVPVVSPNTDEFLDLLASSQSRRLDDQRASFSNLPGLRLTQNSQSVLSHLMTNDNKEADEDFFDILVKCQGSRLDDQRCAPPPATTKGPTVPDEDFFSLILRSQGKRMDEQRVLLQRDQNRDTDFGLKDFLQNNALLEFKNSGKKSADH
Assay: affinity purification with mass spectrometry

PLK1 (from UniProt P53350 1-603)
binding: binds

Dynein (DYNC1H1) (from UniProt Q14204 1-4646)
binding: binds

Cyclin B1 (CCNB1) (from UniProt P14635 1-433)
binding: binds

nuclear mitotic apparatus protein (NuMA) (from UniProt Q14980 1-2115)
binding: binds

EIF3E (from UniProt P60228 1-445)
binding: binds

PAR3 (from UniProt Q8TEW0 1-1356)
binding: binds

ψ-tubulin (TUBG1) (from UniProt P23258 1-451)
binding: binds

CLASP1 (from UniProt Q7Z460 1-1538)
binding: binds

B1: HAUS6 (protein, UniProt Q7Z4H7 1-955)
chain: MSSASVTAFEKEHLWMYLQALGFEPGPATIACGKIVSHTHLGVNMFDKLNRDAFHIISYFLFQVLDQSLTKEVFKFCWPPFDQKSDTEFRKHCCEWIKRISGECGSSFPQVVGSLFLSPGGPKFIHLMYHFARFVAMKYIKSNSKNSSHHFVETFNIKPQDLHKCIARCHFARSRFLQILQRQDCVTQKYQENAQLSVKQVRNLRSECIGLENQIKKMEPYDDHSNMEEKIQKVRSLWASVNETLMFLEKEREVVSSVLSLVNQYALDGTNVAINIPRLLLDKIEKQMFQLHIGNVYEAGKLNLLTVIQLLNEVLKVMKYERCQADQARLTVDLHYLEKETKFQKERLSDLKHMRYRIKDDLTTIRHSVVEKQGEWHKKWKEFLGLSPFSLIKGWTPSVDLLPPMSPLSFDPASEEVYAKSILCQYPASLPDAHKQHNQENGCRGDSDTLGALHDLANSPASFLSQSVSSSDRNSVTVLEKDTKMGTPKEKNEAISKKIPEFEVENSPLSDVAKNTESSAFGGSLPAKKSDPFQKEQDHLVEEVARAVLSDSPQLSEGKEIKLEELIDSLGSNPFLTRNQIPRTPENLITEIRSSWRKAIEMEENRTKEPIQMDAEHREVLPESLPVLHNQREFSMADFLLETTVSDFGQSHLTEEKVISDCECVPQKHVLTSHIDEPPTQNQSDLLNKKVICKQDLECLAFTKLSETSRMETFSPAVGNRIDVMGGSEEEFMKILDHLEVSCNKPSTNKTMLWNSFQISSGISSKSFKDNDFGILHETLPEEVGHLSFNSSSSSEANFKLEPNSPMHGGTLLEDVVGGRQTTPESDFNLQALRSRYEALKKSLSKKREESYLSNSQTPERHKPELSPTPQNVQTDDTLNFLDTCDLHTEHIKPSLRTSIGERKRSLSPLIKFSPVEQRLRTTIACSLGELPNLKEEDILNKSLDAKEPPSDLTR
binding: binds

B2: Annexin A1 (ANXA1) (protein, UniProt P04083 1-346)
chain: MAMVSEFLKQAWFIENEEQEYVQTVKSSKGGPGSAVSPYPTFNPSSDVAALHKAIMVKGVDEATIIDILTKRNNAQRQQIKAAYLQETGKPLDETLKKALTGHLEEVVLALLKTPAQFDADELRAAMKGLGTDEDTLIEILASRTNKEIRDINRVYREELKRDLAKDITSDTSGDFRNALLSLAKGDRSEDFGVNEDLADSDARALYEAGERRKGTDVNVFNTILTTRSYPQLRRVFQKYTKYSKHDMNKVLDLELKGDIEKCLTAIVKCATSKPAFFAEKLHQAMKGVGTRHKALIRIMVSRSEIDMNDIKAFYQKMYGISLCQAILDETKGDYEKILVALCGGN
binding: binds

B3: S100A11 (S100 Ca^2+-binding protein A11) (protein, UniProt P31949 1-105)
chain: MAKISSPTETERCIESLIAVFQKYAGKDGYNYTLSKTEFLSFMNTELAAFTKNQKDPGVLDRMMKKLDTNSDGQLDFSEFLNLIGGLAMACHDSFLKAVPSQKRT
binding: binds

B4: Serum Amyloid A-1 protein (SAA1) (protein, UniProt P0DJI8 19-122)
chain: RSFFSFLGEAFDGARDMWRAYSDMREANYIGSDKYFHARGNYDAAKRGPGGAWAAEVITDARENIQRFFGHGAEDSLADQAANEWGRSGKDPNHFRPAGLPEKY
binding: binds

B5: INSC (protein, UniProt Q1MX18 1-579)
chain: MRRPPGNGEAASEGPGGWGLWGVQESRRLCCAGHDRCKQALLQIGINMMALPGGRHLDSVTLPGQRLHLMQVDSVQRWMEDLKLMTECECMCVLQAKPISLEEDAQGDLILAGGPGPGDPLQLLLKRGWVISTELRRIGQKLAQDRWARVHSMSVRLTCHARSMVSEYSAVSRNSLKEMGEIEKLLMEKCSELSAVTERCLQVENEHVLKSMKACVSETLSMLGQHFGQLLELALTREVQALVRKIDASDNIYTTESTTGNLFSLTQEGAPLCRIIAKEGGVVALFKVCRQDSFRCLYPQALRTLASICCVEEGVHQLEKVDGVLCLADILTDNSHSEATRAEAAAVVAQVTSPHLPVTQHLSSFLESMEEIVTALVKLCQEASSGEVFLLASAALANITFFDTMACEMLLQLNAIRVLLEACSDKQRVDTPYTRDQIVTILANMSVLEQCASDIIQENGVQLIMGMLSEKPRSGTPAEVAACERVQQKAAVTLARLSRDPDVAREAVRLSCMSRLIELCRSPSERNSSDAVLVACLAALRRLAGVCPEGLQDSDFQQLVQPRLVDSFLLCSNMEESFV
binding: binds

B6: NUMB (protein, UniProt P49757 1-651)
chain: MNKLRQSFRRKKDVYVPEASRPHQWQTDEEGVRTGKCSFPVKYLGHVEVDESRGMHICEDAVKRLKAERKFFKGFFGKTGKKAVKAVLWVSADGLRVVDEKTKDLIVDQTIEKVSFCAPDRNFDRAFSYICRDGTTRRWICHCFMAVKDTGERLSHAVGCAFAACLERKQKREKECGVTATFDASRTTFTREGSFRVTTATEQAEREEIMKQMQDAKKAETDKIVVGSSVAPGNTAPSPSSPTSPTSDATTSLEMNNPHAIPRRHAPIEQLARQGSFRGFPALSQKMSPFKRQLSLRINELPSTMQRKTDFPIKNAVPEVEGEAESISSLCSQITNAFSTPEDPFSSAPMTKPVTVVAPQSPTFQANGTDSAFHVLAKPAHTALAPVAMPVRETNPWAHAPDAANKEIAATCSGTEWGQSSGAASPGLFQAGHRRTPSEADRWLEEVSKSVRAQQPQASAAPLQPVLQPPPPTAISQPASPFQGNAFLTSQPVPVGVVPALQPAFVPAQSYPVANGMPYPAPNVPVVGITPSQMVANVFGTAGHPQAAHPHQSPSLVRQQTFPHYEASSATTSPFFKPPAQHLNGSAAFNGVDDGRLASADRHTEVPTGTCPVDPFEAQWAALENKSKQRTNPSPTNPFSSDLQKTFEIEL
binding: binds
